Data from article PMC11552566.

Biological target: T1, STAT1 lacking the protein interaction domain (△1-121aa, △STAT_int-Flag) (UniProt P42225)
T1 sequence: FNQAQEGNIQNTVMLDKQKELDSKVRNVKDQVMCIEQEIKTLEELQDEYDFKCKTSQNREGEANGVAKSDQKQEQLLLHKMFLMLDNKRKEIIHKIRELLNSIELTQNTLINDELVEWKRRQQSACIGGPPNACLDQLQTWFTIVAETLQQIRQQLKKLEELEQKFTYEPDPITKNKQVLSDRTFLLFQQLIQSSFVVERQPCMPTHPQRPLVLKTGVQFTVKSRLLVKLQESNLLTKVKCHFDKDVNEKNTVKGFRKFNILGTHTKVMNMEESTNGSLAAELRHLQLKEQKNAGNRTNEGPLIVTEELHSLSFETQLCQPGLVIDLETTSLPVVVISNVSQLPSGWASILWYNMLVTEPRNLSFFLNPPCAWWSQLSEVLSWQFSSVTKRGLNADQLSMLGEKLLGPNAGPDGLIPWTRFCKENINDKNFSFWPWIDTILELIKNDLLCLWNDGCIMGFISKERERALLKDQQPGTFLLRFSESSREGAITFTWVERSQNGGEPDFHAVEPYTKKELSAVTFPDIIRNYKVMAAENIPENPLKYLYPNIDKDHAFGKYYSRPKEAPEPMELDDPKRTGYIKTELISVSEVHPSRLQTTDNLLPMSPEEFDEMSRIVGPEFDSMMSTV
Assay: co-IP; extracts of HEK293T cells transfected with HA-GR and Flag-STAT1 plasmids (full length or truncations), immunoprecipitated with HA antibodies (Figure 5G) or Flag antibodies (Figure 5H)

binding: no binding
Substance: full-length GR (GR-HA) (receptor)

These are yes or no findings as the source states them, for the method shown. Binding seen in cells or lysates may run through a third protein. Sequences can lack the tags named with a protein.
